This note sets out measurements from paper PMC7438335.

The chains behind the UniProt entries cited, without tags or fusion partners.
UniProt Q9V6Q2: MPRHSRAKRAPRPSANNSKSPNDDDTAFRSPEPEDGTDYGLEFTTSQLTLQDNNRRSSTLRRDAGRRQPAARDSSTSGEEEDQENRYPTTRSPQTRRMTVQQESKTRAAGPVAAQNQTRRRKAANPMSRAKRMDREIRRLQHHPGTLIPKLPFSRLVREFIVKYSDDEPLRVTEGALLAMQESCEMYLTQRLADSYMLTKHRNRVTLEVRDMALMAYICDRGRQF

Results are given in words; binding and its absence hold for the method and conditions named. Binding seen in cells or lysates may run through a third protein. Some results given as binding are weak or reduced against the parent protein; the word gives no strength. For some assays here: Where a sequence is shown, tags or fusion partners need not be part of it.

Assay [1] has as its target T1, Barrier-to-autointegration factor (BAF) (Drosophila melanogaster (endogenous in S2 cells)) (UniProt Q9VLU0).
T1 sequence: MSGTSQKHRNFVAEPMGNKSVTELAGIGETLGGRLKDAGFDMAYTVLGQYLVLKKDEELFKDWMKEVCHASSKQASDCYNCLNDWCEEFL
The assay can be described thus: co-IP; extracts of a stable S2 cell line expressing CENP-A^CID::YFP; IP with αBAF or αGFP antibodies, WB.

Assay [2] addresses CENP-A^CID::YFP fusion protein (Drosophila) (UniProt Q9V6Q2). The assay is described as above.
Assay [3] addresses T2, CENP-C (Drosophila melanogaster (endogenous in S2 cells)) (UniProt Q9VHP9).
T2 sequence: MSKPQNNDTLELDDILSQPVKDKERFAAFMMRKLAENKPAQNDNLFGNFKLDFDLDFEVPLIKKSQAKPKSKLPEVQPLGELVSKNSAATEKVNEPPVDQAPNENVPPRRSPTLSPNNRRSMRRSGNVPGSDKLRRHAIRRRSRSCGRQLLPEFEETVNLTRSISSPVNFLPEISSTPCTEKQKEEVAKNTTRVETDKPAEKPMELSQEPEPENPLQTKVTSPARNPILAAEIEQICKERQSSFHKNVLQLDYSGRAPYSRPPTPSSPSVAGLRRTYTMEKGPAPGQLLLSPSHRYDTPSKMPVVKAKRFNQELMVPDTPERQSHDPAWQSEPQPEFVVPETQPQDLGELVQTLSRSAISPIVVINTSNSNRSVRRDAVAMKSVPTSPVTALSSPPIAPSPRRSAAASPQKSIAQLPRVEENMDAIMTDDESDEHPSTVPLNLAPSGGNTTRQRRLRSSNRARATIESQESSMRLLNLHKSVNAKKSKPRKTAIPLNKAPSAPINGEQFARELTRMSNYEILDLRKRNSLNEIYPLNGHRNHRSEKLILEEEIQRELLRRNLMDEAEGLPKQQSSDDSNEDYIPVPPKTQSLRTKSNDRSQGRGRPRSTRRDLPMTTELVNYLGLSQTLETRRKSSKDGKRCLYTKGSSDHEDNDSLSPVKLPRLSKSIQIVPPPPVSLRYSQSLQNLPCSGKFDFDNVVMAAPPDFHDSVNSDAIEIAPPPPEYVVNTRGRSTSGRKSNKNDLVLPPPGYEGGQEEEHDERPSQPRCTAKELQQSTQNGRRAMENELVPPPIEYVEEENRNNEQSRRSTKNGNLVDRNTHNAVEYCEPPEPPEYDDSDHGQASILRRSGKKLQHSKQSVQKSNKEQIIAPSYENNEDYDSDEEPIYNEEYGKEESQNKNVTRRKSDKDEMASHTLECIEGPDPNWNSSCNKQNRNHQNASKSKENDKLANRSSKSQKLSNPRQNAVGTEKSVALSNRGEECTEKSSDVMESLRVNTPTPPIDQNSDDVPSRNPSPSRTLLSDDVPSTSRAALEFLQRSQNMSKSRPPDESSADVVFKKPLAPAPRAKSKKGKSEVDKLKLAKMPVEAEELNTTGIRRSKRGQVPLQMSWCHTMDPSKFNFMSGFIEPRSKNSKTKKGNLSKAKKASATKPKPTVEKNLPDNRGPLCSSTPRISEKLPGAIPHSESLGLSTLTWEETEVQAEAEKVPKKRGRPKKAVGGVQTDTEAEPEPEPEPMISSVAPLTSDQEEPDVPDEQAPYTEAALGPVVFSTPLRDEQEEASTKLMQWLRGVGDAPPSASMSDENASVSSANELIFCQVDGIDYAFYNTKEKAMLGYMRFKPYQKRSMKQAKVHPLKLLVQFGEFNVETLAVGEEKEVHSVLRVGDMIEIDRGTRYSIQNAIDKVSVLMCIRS
Description: co-IP; S2 cell extracts (50 mM Tris-HCl pH 8, 5 mM EDTA, 0.5% NP-40, supplemented to 300 mM NaCl), overnight at 4 °C with αBAF or αCENP-C antibodies or preimmune serum, Protein A Sepharose, WB; also after DNAse I treatment of the extract; also from dsRNA^NHK1 cells and pMT-NHK1 cells overexpressing VRK1/NHK1.

Assay [4] addresses T1, Barrier-to-autointegration factor (BAF) (Drosophila melanogaster (endogenous in S2 cells)). The assay is described as above.
The target is the same in assay [5]. The assay can be described thus: co-IP; extracts of stable S2 lines expressing GFP::CENP-C^R or GFP::CENP-CΔFIM^R, control dsRNA^LacZ or depleted of endogenous CENP-C (dsRNA^CENP-C); IP with αBAF antibodies, mock with preimmune serum, WB with αGFP and αBAF.

With “CENP-A^CID::YFP fusion protein (from UniProt Q9V6Q2 1-225)”, the binding entry in assay [1] is “no binding”.

B1: Barrier-to-autointegration factor (BAF) (protein, UniProt Q9VLU0 1-90)
chain: MSGTSQKHRNFVAEPMGNKSVTELAGIGETLGGRLKDAGFDMAYTVLGQYLVLKKDEELFKDWMKEVCHASSKQASDCYNCLNDWCEEFL
As to B1, the binding entry in assay [2] was “no binding”; in assay [3] it was “binds”.

B2: CENP-C (protein, UniProt Q9VHP9 1-1411)
chain: MSKPQNNDTLELDDILSQPVKDKERFAAFMMRKLAENKPAQNDNLFGNFKLDFDLDFEVPLIKKSQAKPKSKLPEVQPLGELVSKNSAATEKVNEPPVDQAPNENVPPRRSPTLSPNNRRSMRRSGNVPGSDKLRRHAIRRRSRSCGRQLLPEFEETVNLTRSISSPVNFLPEISSTPCTEKQKEEVAKNTTRVETDKPAEKPMELSQEPEPENPLQTKVTSPARNPILAAEIEQICKERQSSFHKNVLQLDYSGRAPYSRPPTPSSPSVAGLRRTYTMEKGPAPGQLLLSPSHRYDTPSKMPVVKAKRFNQELMVPDTPERQSHDPAWQSEPQPEFVVPETQPQDLGELVQTLSRSAISPIVVINTSNSNRSVRRDAVAMKSVPTSPVTALSSPPIAPSPRRSAAASPQKSIAQLPRVEENMDAIMTDDESDEHPSTVPLNLAPSGGNTTRQRRLRSSNRARATIESQESSMRLLNLHKSVNAKKSKPRKTAIPLNKAPSAPINGEQFARELTRMSNYEILDLRKRNSLNEIYPLNGHRNHRSEKLILEEEIQRELLRRNLMDEAEGLPKQQSSDDSNEDYIPVPPKTQSLRTKSNDRSQGRGRPRSTRRDLPMTTELVNYLGLSQTLETRRKSSKDGKRCLYTKGSSDHEDNDSLSPVKLPRLSKSIQIVPPPPVSLRYSQSLQNLPCSGKFDFDNVVMAAPPDFHDSVNSDAIEIAPPPPEYVVNTRGRSTSGRKSNKNDLVLPPPGYEGGQEEEHDERPSQPRCTAKELQQSTQNGRRAMENELVPPPIEYVEEENRNNEQSRRSTKNGNLVDRNTHNAVEYCEPPEPPEYDDSDHGQASILRRSGKKLQHSKQSVQKSNKEQIIAPSYENNEDYDSDEEPIYNEEYGKEESQNKNVTRRKSDKDEMASHTLECIEGPDPNWNSSCNKQNRNHQNASKSKENDKLANRSSKSQKLSNPRQNAVGTEKSVALSNRGEECTEKSSDVMESLRVNTPTPPIDQNSDDVPSRNPSPSRTLLSDDVPSTSRAALEFLQRSQNMSKSRPPDESSADVVFKKPLAPAPRAKSKKGKSEVDKLKLAKMPVEAEELNTTGIRRSKRGQVPLQMSWCHTMDPSKFNFMSGFIEPRSKNSKTKKGNLSKAKKASATKPKPTVEKNLPDNRGPLCSSTPRISEKLPGAIPHSESLGLSTLTWEETEVQAEAEKVPKKRGRPKKAVGGVQTDTEAEPEPEPEPMISSVAPLTSDQEEPDVPDEQAPYTEAALGPVVFSTPLRDEQEEASTKLMQWLRGVGDAPPSASMSDENASVSSANELIFCQVDGIDYAFYNTKEKAMLGYMRFKPYQKRSMKQAKVHPLKLLVQFGEFNVETLAVGEEKEVHSVLRVGDMIEIDRGTRYSIQNAIDKVSVLMCIRS
Take B2: the binding entry in assay [4] is “binds”.

B3: GFP::CENP-C^R (protein, UniProt Q9VHP9 1-1411)
chain: MSKPQNNDTLELDDILSQPVKDKERFAAFMMRKLAENKPAQNDNLFGNFKLDFDLDFEVPLIKKSQAKPKSKLPEVQPLGELVSKNSAATEKVNEPPVDQAPNENVPPRRSPTLSPNNRRSMRRSGNVPGSDKLRRHAIRRRSRSCGRQLLPEFEETVNLTRSISSPVNFLPEISSTPCTEKQKEEVAKNTTRVETDKPAEKPMELSQEPEPENPLQTKVTSPARNPILAAEIEQICKERQSSFHKNVLQLDYSGRAPYSRPPTPSSPSVAGLRRTYTMEKGPAPGQLLLSPSHRYDTPSKMPVVKAKRFNQELMVPDTPERQSHDPAWQSEPQPEFVVPETQPQDLGELVQTLSRSAISPIVVINTSNSNRSVRRDAVAMKSVPTSPVTALSSPPIAPSPRRSAAASPQKSIAQLPRVEENMDAIMTDDESDEHPSTVPLNLAPSGGNTTRQRRLRSSNRARATIESQESSMRLLNLHKSVNAKKSKPRKTAIPLNKAPSAPINGEQFARELTRMSNYEILDLRKRNSLNEIYPLNGHRNHRSEKLILEEEIQRELLRRNLMDEAEGLPKQQSSDDSNEDYIPVPPKTQSLRTKSNDRSQGRGRPRSTRRDLPMTTELVNYLGLSQTLETRRKSSKDGKRCLYTKGSSDHEDNDSLSPVKLPRLSKSIQIVPPPPVSLRYSQSLQNLPCSGKFDFDNVVMAAPPDFHDSVNSDAIEIAPPPPEYVVNTRGRSTSGRKSNKNDLVLPPPGYEGGQEEEHDERPSQPRCTAKELQQSTQNGRRAMENELVPPPIEYVEEENRNNEQSRRSTKNGNLVDRNTHNAVEYCEPPEPPEYDDSDHGQASILRRSGKKLQHSKQSVQKSNKEQIIAPSYENNEDYDSDEEPIYNEEYGKEESQNKNVTRRKSDKDEMASHTLECIEGPDPNWNSSCNKQNRNHQNASKSKENDKLANRSSKSQKLSNPRQNAVGTEKSVALSNRGEECTEKSSDVMESLRVNTPTPPIDQNSDDVPSRNPSPSRTLLSDDVPSTSRAALEFLQRSQNMSKSRPPDESSADVVFKKPLAPAPRAKSKKGKSEVDKLKLAKMPVEAEELNTTGIRRSKRGQVPLQMSWCHTMDPSKFNFMSGFIEPRSKNSKTKKGNLSKAKKASATKPKPTVEKNLPDNRGPLCSSTPRISEKLPGAIPHSESLGLSTLTWEETEVQAEAEKVPKKRGRPKKAVGGVQTDTEAEPEPEPEPMISSVAPLTSDQEEPDVPDEQAPYTEAALGPVVFSTPLRDEQEEASTKLMQWLRGVGDAPPSASMSDENASVSSANELIFCQVDGIDYAFYNTKEKAMLGYMRFKPYQKRSMKQAKVHPLKLLVQFGEFNVETLAVGEEKEVHSVLRVGDMIEIDRGTRYSIQNAIDKVSVLMCIRS
Consider B3, for which the binding result in assay [5] is given as “binds”.
